These are yes or no findings as the source states them, for the method shown. In cells and extracts the contact can be indirect. Some binding calls cover weakened binding; strength is not graded here. Sequences can lack the tags named with a protein.
Biological target: T1, Full-length human NLRP1 with a C-terminal FLAG tag (NLRP1-FLAG), wild type (human), Q9C000
T1 chain: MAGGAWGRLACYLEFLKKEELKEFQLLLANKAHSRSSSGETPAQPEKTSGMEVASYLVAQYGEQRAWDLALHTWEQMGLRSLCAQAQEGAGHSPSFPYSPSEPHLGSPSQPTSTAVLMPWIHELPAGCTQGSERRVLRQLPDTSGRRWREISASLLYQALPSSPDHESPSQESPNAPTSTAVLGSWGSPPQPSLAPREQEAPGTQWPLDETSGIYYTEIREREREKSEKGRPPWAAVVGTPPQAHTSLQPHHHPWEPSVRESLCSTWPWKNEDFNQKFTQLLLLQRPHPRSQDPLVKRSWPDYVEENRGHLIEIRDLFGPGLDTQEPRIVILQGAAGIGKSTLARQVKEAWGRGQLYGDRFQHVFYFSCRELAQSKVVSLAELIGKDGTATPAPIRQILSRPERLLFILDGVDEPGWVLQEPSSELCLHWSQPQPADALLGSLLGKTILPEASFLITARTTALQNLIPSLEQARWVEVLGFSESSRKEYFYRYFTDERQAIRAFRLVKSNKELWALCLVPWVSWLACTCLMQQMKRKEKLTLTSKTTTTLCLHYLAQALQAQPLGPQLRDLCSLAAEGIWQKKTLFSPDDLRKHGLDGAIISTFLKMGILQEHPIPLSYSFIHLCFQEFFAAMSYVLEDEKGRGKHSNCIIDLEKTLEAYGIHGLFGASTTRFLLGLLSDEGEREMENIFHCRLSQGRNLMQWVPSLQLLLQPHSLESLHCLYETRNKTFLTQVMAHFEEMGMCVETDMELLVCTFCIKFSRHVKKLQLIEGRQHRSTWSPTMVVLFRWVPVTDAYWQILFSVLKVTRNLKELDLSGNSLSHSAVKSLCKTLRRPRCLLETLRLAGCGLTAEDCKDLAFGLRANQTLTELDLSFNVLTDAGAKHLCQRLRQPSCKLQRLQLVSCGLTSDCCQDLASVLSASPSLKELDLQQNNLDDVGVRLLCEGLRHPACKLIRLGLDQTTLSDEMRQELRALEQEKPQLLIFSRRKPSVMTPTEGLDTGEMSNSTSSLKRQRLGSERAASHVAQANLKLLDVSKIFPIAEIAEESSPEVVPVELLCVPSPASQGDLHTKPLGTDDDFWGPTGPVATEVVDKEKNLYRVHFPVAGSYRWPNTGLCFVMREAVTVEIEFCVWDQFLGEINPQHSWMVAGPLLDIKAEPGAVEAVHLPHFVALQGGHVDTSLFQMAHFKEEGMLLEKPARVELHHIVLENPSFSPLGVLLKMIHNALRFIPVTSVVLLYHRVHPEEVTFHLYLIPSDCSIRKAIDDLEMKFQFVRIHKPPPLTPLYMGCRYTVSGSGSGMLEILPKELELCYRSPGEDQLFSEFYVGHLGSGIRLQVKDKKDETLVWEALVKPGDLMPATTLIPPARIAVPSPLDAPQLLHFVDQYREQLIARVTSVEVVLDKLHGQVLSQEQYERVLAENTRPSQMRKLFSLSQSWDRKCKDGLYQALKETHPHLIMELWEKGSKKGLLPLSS
Experiment: co-IP
Conditions: remark: other sources report otherwise

B1: DPP9, short isoform, N-terminal His tag (His-TEV-DPP9), wild type, for co-immunoprecipitation, Q86TI2-1 1-863 (enzyme)
chain: MATTGTPTADRGDAAATDDPAARFQVQKHSWDGLRSIIHGSRKYSGLIVNKAPHDFQFVQKTDESGPHSHRLYYLGMPYGSRENSLLYSEIPKKVRKEALLLLSWKQMLDHFQATPHHGVYSREEELLRERKRLGVFGITSYDFHSESGLFLFQASNSLFHCRDGGKNGFMVSPMKPLEIKTQCSGPRMDPKICPADPAFFSFINNSDLWVANIETGEERRLTFCHQGLSNVLDDPKSAGVATFVIQEEFDRFTGYWWCPTASWEGSEGLKTLRILYEEVDESEVEVIHVPSPALEERKTDSYRYPRTGSKNPKIALKLAEFQTDSQGKIVSTQEKELVQPFSSLFPKVEYIARAGWTRDGKYAWAMFLDRPQQWLQLVLLPPALFIPSTENEEQRLASARAVPRNVQPYVVYEEVTNVWINVHDIFYPFPQSEGEDELCFLRANECKTGFCHLYKVTAVLKSQGYDWSEPFSPGEDEFKCPIKEEIALTSGEWEVLARHGSKIWVNEETKLVYFQGTKDTPLEHHLYVVSYEAAGEIVRLTTPGFSHSCSMSQNFDMFVSHYSSVSTPPCVHVYKLSGPDDDPLHKQPRFWASMMEAASCPPDYVPPEIFHFHTRSDVRLYGMIYKPHALQPGKKHPTVLFVYGGPQVQLVNNSFKGIKYLRLNTLASLGYAVVVIDGRGSCQRGLRFEGALKNQMGQVEIEDQVEGLQFVAEKYGFIDLSRVAIHGWSYGGFLSLMGLIHKPQVFKVAIAGAPVTVWMAYDTGYTERYMDVPENNQHGYEAGSVALHVEKLPNEPNRLLILHGFLDENVHFFHTNFLVSQLIRAGKPYQLQIYPNERHSIRCPESGEHYEVTLLHFLQEYL
With B1 the binding was “binds”.

— paper doi:10.1101/2020.08.14.246132
